According to PMC6338772:
These are yes or no findings as the source states them, for the method shown. In cells and extracts the contact can be indirect. Some entries that bind do so weakly or less than the wild type.

By UniProt entry, the sequences of proteins in these tests, tags left out.
UniProt Q8CFE3: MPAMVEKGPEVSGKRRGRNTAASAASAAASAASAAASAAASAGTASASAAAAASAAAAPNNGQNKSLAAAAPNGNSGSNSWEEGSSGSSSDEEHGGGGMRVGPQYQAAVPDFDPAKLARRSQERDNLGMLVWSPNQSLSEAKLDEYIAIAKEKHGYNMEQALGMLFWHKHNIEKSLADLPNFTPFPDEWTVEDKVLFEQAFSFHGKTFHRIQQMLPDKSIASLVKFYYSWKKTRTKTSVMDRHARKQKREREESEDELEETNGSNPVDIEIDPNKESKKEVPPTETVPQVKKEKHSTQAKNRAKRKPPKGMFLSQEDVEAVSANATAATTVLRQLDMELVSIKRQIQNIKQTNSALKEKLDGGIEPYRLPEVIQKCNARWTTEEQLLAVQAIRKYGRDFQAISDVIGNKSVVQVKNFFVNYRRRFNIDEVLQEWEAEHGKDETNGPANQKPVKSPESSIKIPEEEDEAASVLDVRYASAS
UniProt P70338: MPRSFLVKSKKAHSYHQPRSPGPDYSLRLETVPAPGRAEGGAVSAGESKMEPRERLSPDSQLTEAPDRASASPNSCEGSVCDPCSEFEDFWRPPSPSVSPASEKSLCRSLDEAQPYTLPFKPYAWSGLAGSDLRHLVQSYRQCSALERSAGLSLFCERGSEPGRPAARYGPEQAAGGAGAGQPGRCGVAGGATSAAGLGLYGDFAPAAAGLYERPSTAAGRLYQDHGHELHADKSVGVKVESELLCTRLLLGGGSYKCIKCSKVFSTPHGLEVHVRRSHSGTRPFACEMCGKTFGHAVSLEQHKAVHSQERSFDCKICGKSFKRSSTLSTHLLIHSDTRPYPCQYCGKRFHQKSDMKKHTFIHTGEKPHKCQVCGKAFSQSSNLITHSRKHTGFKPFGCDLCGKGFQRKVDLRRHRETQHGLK
UniProt P70288: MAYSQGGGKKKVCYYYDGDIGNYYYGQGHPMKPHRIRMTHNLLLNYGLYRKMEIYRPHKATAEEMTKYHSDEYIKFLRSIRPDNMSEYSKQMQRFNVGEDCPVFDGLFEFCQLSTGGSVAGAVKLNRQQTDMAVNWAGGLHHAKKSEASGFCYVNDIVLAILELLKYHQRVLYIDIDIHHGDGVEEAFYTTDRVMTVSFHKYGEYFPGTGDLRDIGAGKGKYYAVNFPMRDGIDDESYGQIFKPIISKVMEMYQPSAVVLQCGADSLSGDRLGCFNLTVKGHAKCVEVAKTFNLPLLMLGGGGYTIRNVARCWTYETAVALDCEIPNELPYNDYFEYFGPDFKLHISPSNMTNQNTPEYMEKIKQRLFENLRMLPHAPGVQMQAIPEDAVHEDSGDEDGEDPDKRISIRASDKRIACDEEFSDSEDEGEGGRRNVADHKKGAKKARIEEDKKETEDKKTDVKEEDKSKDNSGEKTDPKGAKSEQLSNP
UniProt O09106: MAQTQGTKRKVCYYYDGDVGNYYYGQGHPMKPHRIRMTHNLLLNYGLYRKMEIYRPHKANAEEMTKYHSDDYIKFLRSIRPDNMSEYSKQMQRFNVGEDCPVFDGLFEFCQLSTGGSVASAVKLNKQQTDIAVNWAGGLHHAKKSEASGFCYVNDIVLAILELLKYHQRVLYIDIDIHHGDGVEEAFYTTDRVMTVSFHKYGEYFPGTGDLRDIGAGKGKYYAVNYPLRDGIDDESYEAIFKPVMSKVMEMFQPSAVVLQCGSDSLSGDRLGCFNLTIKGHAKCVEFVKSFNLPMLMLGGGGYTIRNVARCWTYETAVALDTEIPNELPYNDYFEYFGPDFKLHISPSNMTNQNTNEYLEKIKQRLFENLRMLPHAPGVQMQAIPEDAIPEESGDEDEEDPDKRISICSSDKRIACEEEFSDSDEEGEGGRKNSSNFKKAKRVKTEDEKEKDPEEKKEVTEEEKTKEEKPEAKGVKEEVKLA

Key:
[1] = molecular target: corepressor CoREST (mouse (endogenous in MG tumor cells)) (UniProt Q8CFE3); experiment: co-IP; MG tumor cell lysates (150 mM NaCl, 20 mM Tris, 1% Triton X-100, protease inhibitors), precleared; immunoprecipitation with antibodies to Gfi1, Lsd1 or CoREST or isotype control, Protein G beads; Western blot
[2] = molecular target: Gfi1 (growth factor independent 1) (UniProt P70338); experiment: as above

| Substance | binding [1] | binding [2] |
| --- | --- | --- |
| Gfi1 (growth factor independent 1) (from UniProt P70338 1-423) | binds |  |
| histone deacetylase HDAC2 (from UniProt P70288 1-488) (enzyme) |  | no binding |
| histone deacetylase HDAC1 (from UniProt O09106 1-482) (enzyme) |  | no binding |
